Data taken from PubChem BioAssay AID588499 (NMMLSC, 2011).
Where “and” joins values, the source holds several entries; their conditions need not be identical. Equal entries are not always repeated. Screen size: about 360,000 compounds; about 610 (0.17%) were called active. The shares of active, inactive and inconclusive entries below differ from those in the screen. No stated cut-off is given here; in the data, active means inhibition above about 30%; inconclusive means no clear call, values can overlap the other calls; inactive means below that.

The molecules below were run on Botulinum neurotoxin type A light chain protease (Clostridium botulinum A str. ATCC 3502) (assay: blockers of BoNT/A LC substrate cleavage – biochemical, flow cytometry, MLPCN library, primary screen (AID 588499; further: plate controls were buffer without enzyme for full effect and enzyme alone for no effect)). Settings: multiplex microsphere protease substrate cleavage, at 10 µM, hits give high values.

**Q.** Which inhibition does the source give for `Cc1nc(C2COc3ccccc3O2)sc1C(=O)O` (stereo not drawn) here?
**A.** Its inhibition is inconclusive: 17%.

**Q.** Which inhibition does the source give for `COC(=O)c1ccccc1OP1(=O)COc2ccccc2OC1` here?
**A.** The inhibition was inconclusive: -1.1%.

**Q.** With `CC(=O)OC(C(=O)NC1CCCCC1)c1ccncc1` (stereo not drawn) as the molecule, how does the inhibition read?
**A.** Its inhibition is inconclusive: -2.9%.

**Q.** With `Cc1ccccc1NS(=O)(=O)c1cc(C(=O)N2CCc3ccccc3C2)ccc1C` as the molecule, how does the inhibition read?
**A.** The inhibition was inconclusive: -4.8%.

**Q.** `CC1=C(C(=O)N(C)C)CC(CC(=O)NCCCCc2ccccc2)C(=O)N1Cc1ccc(C(C)(C)C)cc1` (stereo not drawn) was tested. Which inhibition did it give?
**A.** Its inhibition is inactive: -0.9%.

**Q.** With `Cc1cccc(NC(=O)C(=O)NNC(=O)c2ccc(C(C)(C)C)cc2)c1` as the molecule, how does the inhibition read?
**A.** The inhibition was inactive: -1.1%.

**Q.** With `O=S(=O)(N=S(N1CCCCC1)N1CCCCC1)c1ccccc1` as the molecule, how does the inhibition read?
**A.** The inhibition was inconclusive: 1.2%.

**Q.** Which inhibition does the source give for `COc1ccccc1C(=O)Nc1ccc(S(=O)(=O)N2CCCC2)cc1` here?
**A.** The inhibition was inconclusive: 0%.

**Q.** How did the inhibition turn out when `Cc1cccc(C)c1OCc1nnc(SCC(=O)NCCc2ccccc2)o1` was run?
**A.** The inhibition was inconclusive: -1.9%.

**Q.** With `COc1ccc(C=O)cc1CSc1ccccn1` as the molecule, how does the inhibition read?
**A.** Its inhibition is inconclusive: 17%.

**Q.** For `Cc1ccc(S(=O)(=O)NC2=C(N3CCN(c4ccccc4F)CC3)C(=O)c3ccccc3C2=O)cc1`, which inhibition is on record?
**A.** The inhibition was inactive: -0.4% and inactive: 0.3%.

**Q.** For `C=CCN1C(=O)c2ccc(C(=O)OCC(=O)Nc3ccccc3OC)cc2C1=O`, which inhibition is on record?
**A.** Its inhibition is inactive: -0.9%.

**Q.** Which inhibition does the source give for `COc1ccc(-c2nn3c(-c4ccccn4)nnc3s2)cc1OC` here?
**A.** The inhibition was inconclusive: 6.2%.

**Q.** For `CCc1ccc(NC(=O)c2cccnc2)cc1`, which inhibition is on record?
**A.** The inhibition was inconclusive: -2.2%.

**Q.** How did the inhibition turn out when `Cc1ccc2sc(NC(=O)CSc3nc(C)cc(C)c3C#N)nc2c1` was run?
**A.** The inhibition was inconclusive: 1%.

**Q.** With `O=C(O)CSCCCC(=O)Nc1ccc(Br)cc1` as the molecule, how does the inhibition read?
**A.** Its inhibition is inconclusive: 6.7%.

**Q.** `Cc1cc(=O)oc2cc(OCC(=O)N3CCOCC3)ccc12` was tested. Which inhibition did it give?
**A.** The inhibition was inactive: -0.2%.

**Q.** For `N#Cc1c(NC(=O)c2ccccc2Cl)n(Cc2ccccc2)c2nc3ccccc3nc12`, which inhibition is on record?
**A.** The inhibition was active: 31.3%.

**Q.** How did the inhibition turn out when `CC(C)(C)CN1CCN(Cc2c[nH]c3ccccc23)CC1CCO` (stereo not drawn) was run?
**A.** Its inhibition is inconclusive: 1%.

**Q.** With `Cc1cc2cc(CNC(=O)C3CCCC3)ccc2n1C` as the molecule, how does the inhibition read?
**A.** Its inhibition is active: 44.6%.

**Q.** How did the inhibition turn out when `CCc1c(C)c(C#N)c2[nH]c3ccccc3n2c1=S` was run?
**A.** Its inhibition is inconclusive: 13.1%.

**Q.** For `Cc1ccc(N2C(=O)NC(=O)C3(Cc4ccccc4N4CCCC43)C2=O)cc1` (stereo not drawn), which inhibition is on record?
**A.** The inhibition was inconclusive: 2.1%.

**Q.** How did the inhibition turn out when `O=C(c1ccco1)N1CCN(C(=O)C(Cc2ccccc2)NS(=O)(=O)c2cccs2)CC1` (stereo not drawn) was run?
**A.** The inhibition was inconclusive: -1.4%.

**Q.** With `O=C(O)c1cc(NCc2cccs2)ccc1N1CCOCC1` as the molecule, how does the inhibition read?
**A.** The inhibition was inconclusive: -4%.

**Q.** `CCOC(=O)Cc1nnc(Nc2cc(C)ccc2C)c2ccccc12` was tested. Which inhibition did it give?
**A.** The inhibition was inactive: 0.6%.

**Q.** With `CC1(C)CC(=O)c2c(nn(-c3ccccc3)c2-c2ccncc2)C1` as the molecule, how does the inhibition read?
**A.** Its inhibition is inconclusive: -0.4%.

**Q.** With `CCN(C(=O)CN1C(=O)COc2ccc(S(=O)(=O)N3CCCCCC3)cc21)c1cccc(C)c1` as the molecule, how does the inhibition read?
**A.** The inhibition was inactive: 1.1%.

**Q.** With `O=c1cc(-c2ccc(Cl)cc2)oc(=O)[nH]1` as the molecule, how does the inhibition read?
**A.** Its inhibition is inconclusive: -48.4%.

**Q.** For `C(=C\c1ccccc1)/CN1CCN(c2ncnc3c2oc2ccccc23)CC1`, which inhibition is on record?
**A.** Its inhibition is inconclusive: -2.2%.

**Q.** Which inhibition does the source give for `COc1ccc(C2=Nn3c(nnc3-c3ccncc3)SC2)cc1` here?
**A.** Its inhibition is inconclusive: -5%.

**Q.** With `O=C1[C@@H]2CSCN2C(=O)CN1CCc1cccc(F)c1` as the molecule, how does the inhibition read?
**A.** Its inhibition is inconclusive: 2%.

**Q.** For `O=C(Nc1ccccc1F)C1CCCN1S(=O)(=O)c1cccc2nsnc12` (stereo not drawn), which inhibition is on record?
**A.** Its inhibition is inactive: 1.9%.

**Q.** Which inhibition does the source give for `CCc1ccc(C(C#N)=CC=Cc2ccccc2)cc1` here?
**A.** Its inhibition is inactive: 0%.

**Q.** With `Cn1cnnc1SCC(=O)Nc1ccc2nc(SCc3ccccc3Cl)sc2c1` as the molecule, how does the inhibition read?
**A.** The inhibition was inconclusive: -7.6%.

**Q.** How did the inhibition turn out when `CCn1c(=O)cc(NC2=NCC(C)CN2c2cccc(Cl)c2)n(C)c1=O` (stereo not drawn) was run?
**A.** The inhibition was inconclusive: 2.6%.

**Q.** For `Cc1ccc2nc(C3CCN(CC(=O)N4CCCCCC4)CC3)[nH]c2c1`, which inhibition is on record?
**A.** The inhibition was inactive: 0.4%.

**Q.** With `Cc1ccc(-n2c(O)c(C=NCc3ccco3)c(=O)[nH]c2=S)cc1C` as the molecule, how does the inhibition read?
**A.** Its inhibition is inconclusive: -44.7%.

**Q.** With `COc1ccc(-c2cc(C(=O)NCC3CCCO3)c3cc(C)ccc3n2)cc1` (stereo not drawn) as the molecule, how does the inhibition read?
**A.** The inhibition was inactive: 0.3%.

**Q.** With `Nc1ccccc1-c1nnc(SCc2ccccc2Cl)[nH]c1=O` as the molecule, how does the inhibition read?
**A.** Its inhibition is inconclusive: 11.6%.

**Q.** How did the inhibition turn out when `Cc1ccc(-c2cc(NC(=O)c3ccccc3[N+](=O)[O-])n[nH]2)cc1` was run?
**A.** Its inhibition is inactive: -0.4%.

**Q.** For `COc1cc2c(cc1OC)CN(C(=O)CCCN1C(=O)c3ccccc3C1=O)CC2`, which inhibition is on record?
**A.** Its inhibition is inconclusive: -0.5%.

**Q.** Which inhibition does the source give for `CCOCCCNC(=O)CS(=O)(=O)Cc1nc(-c2cccc(OC)c2)oc1C` here?
**A.** The inhibition was inconclusive: 1%.

**Q.** For `COc1cc(CN2C[C@@H](CO)O[C@@H](n3cnc4c(NC(C)C)ncnc43)C2)cc(OC)c1OC`, which inhibition is on record?
**A.** The inhibition was inactive: -0.5%.

**Q.** `O=C(Cc1cccc(NC(=O)C2CCN(C(=O)CCc3ccccc3)CC2)c1)Nc1cccc(C(=O)N2CCCC2)c1` was tested. Which inhibition did it give?
**A.** The inhibition was inactive: -0.6%.

**Q.** With `CCC(C)c1ccc(NC(=O)CC(C)=O)cc1` (stereo not drawn) as the molecule, how does the inhibition read?
**A.** Its inhibition is inconclusive: -1.8%.

**Q.** Which inhibition does the source give for `CN1C2CCC1/C(=C\c1ccc(F)cc1)C(=O)/C2=C/c1ccc(F)cc1` here?
**A.** Its inhibition is inactive: -1.8%.

**Q.** With `CCn1c(SCC(=O)Nc2ccc(C(C)=O)cc2)nc2nc3c(cc2c1=O)COC(C)(C)C3` as the molecule, how does the inhibition read?
**A.** Its inhibition is inconclusive: -43%.

**Q.** With `COc1cc(-c2noc(-c3cccs3)n2)cc(OC)c1OC` as the molecule, how does the inhibition read?
**A.** The inhibition was inconclusive: 0.1%.

**Q.** With `N#Cc1c(N)nc2c(c1-c1ccccc1)CCC2` as the molecule, how does the inhibition read?
**A.** Its inhibition is inactive: 0.5%.

**Q.** Which inhibition does the source give for `CCOC(=O)c1c(-n2c(C)cc(C=C3C(=O)NC(=S)NC3=O)c2C)sc2c1CCCC2` here?
**A.** Its inhibition is active: 36.2%.

**Q.** Which inhibition does the source give for `CC(C)c1ccc(/C=N/NC(=O)CC(=O)NC2CCCCC2)cc1` here?
**A.** The inhibition was inactive: -0.6%.

**Q.** Which inhibition does the source give for `CN(CC(=O)Nc1ccccc1Cl)C(=O)COC(=O)C1=COCCO1` here?
**A.** Its inhibition is inconclusive: -5%.

**Q.** How did the inhibition turn out when `C=CCn1c(SCC(=O)NCc2ccccc2)nnc1-c1cc(Br)ccc1O` was run?
**A.** Its inhibition is inconclusive: -1.2%.

**Q.** With `COc1ccc(CN2C(=O)CCC2(C)C(=O)NCc2cccnc2)c(OC)c1` (stereo not drawn) as the molecule, how does the inhibition read?
**A.** The inhibition was inconclusive: -0.3%.

**Q.** With `NNc1nc(-c2ccccc2)cc(-c2ccccc2O)n1` as the molecule, how does the inhibition read?
**A.** Its inhibition is inconclusive: 4.8%.

**Q.** For `CCN(CC(=O)Nc1ccc2c(c1)OCCO2)C(=O)CSCC(=O)Nc1ccc(C)cc1`, which inhibition is on record?
**A.** The inhibition was inactive: 3%.

**Q.** With `COC(=O)C1CCN(C(=O)c2ccc(SC)cc2OC)CC1` as the molecule, how does the inhibition read?
**A.** The inhibition was inconclusive: -0.4%.

**Q.** For `COc1ccc(NC(=O)CS(=O)CC(=O)Nc2cc(Cl)ccc2OC)cc1` (stereo not drawn), which inhibition is on record?
**A.** The inhibition was inconclusive: -1.2%.
